# In patent US20110152345A1, “EBI3, DLX5, NPTX1 AND CDKN3 FOR TARGET GENES OF LUNG CANCER THERAPY AND DIAGNOSIS” (Oncotherapy Science, Inc., priority 2007, published 2011):
# For at least one compound, name, drawing or mass did not settle the structure.
# Tested on: NIH-3T3 cells
# Experiment: Matrigel invasion assay in the presence of LY294002
# Format: cell-based
smiles,measurement,setting,value
O=c1cc(N2CCOCC2)oc2c(-c3ccccc3)cccc12 [LY294002],extent of invasion through Matrigel,"CDKN3-overexpressing NIH-3T3 cells, pre-incubated with LY294002 or DMSO",reduced the extent of invasion significantly
same,invasion through Matrigel,control NIH-3T3 cells transfected with mock-vector,little inhibitory effect
